Data published in PubChem BioAssay AID2685 (National Center for Advancing Translational Sciences (NCATS), 2010).
The list shows a part of the results. These are further read-outs of the screen, such as a control signal, another cell line or another target. No call is given for them. The list favours compounds with an active or inconclusive main result. The note in brackets gives the kind of curve behind each potency; many fits are weak.

Test: qHTS Assay for Lipid Storage Modulators in Drosophila S3 Cells;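 on cell number change: cells counted by Cell Tracker Red CMTPX staining in the red channel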
Conditions: BODIPY lipid droplet fluorescence, 18-24 h; for cell number change: measured here: cell count max response, cells fed with added oleic acid
Outline: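 Drosophila S3 cells loaded with oleic acid (400 uM, as added) and compounds at several concentrations; lipid droplets imaged by 488-nm laser-scanning cytometry, 500–530 nm intensity and object ratio to cell channel. Percent activity normalized to 20 uM Triacsin C.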

[1] = measured here: lipid fluorescence (Fed channel) AC50, cells fed with added oleic acid

Row | SMILES | cell number change [%] | AC50 (measured here: cell number channel AC50, cells fed with added oleic acid) | AC50 [1]
1 | CCN(CCCn1c(=S)[nH]c2ncccc2c1=O)c1ccccc1 | 172 | 29.1 µM [rising, single point] | 23.1 µM [rising, partial curve]
2 | CSc1cccc(NC(=O)Nc2ccc(Cl)cc2)c1 | -31.2 | – | 0.731 µM [rising, full curve, poor fit]
3 | N#Cc1ccc(COC(=O)C2CC(=O)N(CCc3ccccc3)C2)cc1 (stereo unspecified) | 10.4 | – | –
4 | O=C(Cc1ccccc1)Nc1ccc(NC(=O)C2CC2)nc1 | 28.1 | – | 11.6 µM [rising, partial curve, poor fit]
5 | CSc1nc2ccc(NC(=O)C3CCCO3)cc2s1 (stereo unspecified) | 7.29 | – | 6.51 µM [rising, single point]
6 | OCC1(Cc2cccc(Cl)c2)CCCN(Cc2ccc(F)c(F)c2)C1 (stereo unspecified) | -27.5 | – | –
7 | Cc1ccc(NC(=O)c2nc(S(=O)(=O)Cc3ccccc3C)ncc2Cl)cc1C | -21.5 | – | –
8 | CCCn1nnnc1SCC(=O)N1C(C)CCCC1C (stereo unspecified) | 10.3 | – | –
9 | Cc1ccc(C)c(N2CCN(C(c3ccc(N(C)C)cc3)c3nnnn3C(C)(C)C)CC2)c1 (stereo unspecified) | 1.55 | – | 6.51 µM [falling, single point]
10 | CC(=O)c1ccccc1NC(=O)COC(=O)c1ccc2c(c1)nc(C)n2-c1ccccc1 | 4.1 | – | 13 µM [rising, partial curve]
11 | COc1ccc(N=c2cc(-c3ccc(O)cc3)oc3ccccc23)cc1 | 15.6 | – | 0.411 µM [rising, full curve, poor fit]
12 | O=C(O)CC1S/C(=N\N=C2\C(=O)Nc3ccccc32)N(c2ccc(O)cc2)C1=O (stereo unspecified) | -2.11 | – | 6.51 µM [rising, single point]
13 | Cc1ccc(S(=O)(=O)N(CC(=O)Nc2cccc(C)c2C)C(=O)N2CCN(C)CC2)cc1 | -3.23 | – | 0.58 µM [falling, full curve, poor fit]
14 | O=C(O)c1ccc(/C=N/Nc2cccc(C(F)(F)F)c2)cc1 | 39.9 | – | 2.91 µM [rising, full curve]
15 | COCCCN(C(=O)C1CCC1)c1c(N)n(Cc2ccccc2)c(=O)[nH]c1=O | 6.26 | – | 0.13 µM [rising, full curve, poor fit]
16 | CC(C)CC1Nc2ncnc(N3CCN(c4ccccc4)CC3)c2N(Cc2ccc(Cl)cc2)C1=O (stereo unspecified) | 26.3 | – | 29.1 µM [rising, partial curve, poor fit]
17 | COc1cccc(/C=N/Nc2ccc(S(=O)(=O)O)cc2)c1O | 86.6 | – | –
18 | CN1CCN(NC(=O)Nc2ccc(Br)cc2Cl)CC1 | – | – | 0.58 µM [falling, single point]

Quoted at random: two records from the list.
Row | SMILES | cell number change [%] | AC50 (measured here: cell number channel AC50, cells fed with added oleic acid) | AC50 [1]
9 | Cc1ccc(C)c(N2CCN(C(c3ccc(N(C)C)cc3)c3nnnn3C(C)(C)C)CC2)c1 (stereo unspecified) | 1.55 | – | 6.51 µM [falling, single point]
4 | O=C(Cc1ccccc1)Nc1ccc(NC(=O)C2CC2)nc1 | 28.1 | – | 11.6 µM [rising, partial curve, poor fit]
